# Screening data

Data taken from PubChem BioAssay AID1053133, deposited by Broad Institute (2014).

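Plate-reader measure of the Venus reporter marking one vaccinia stage in infected cells (the cell line is not named here); read time unknown.
The test concentration is not given here.
Percent change in Venus reporter signal; lower (more negative) values mean stronger inhibition of that viral stage.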

Values are in %.
How 0% and 100% were set is not given here.
Common to all entries: measured here: Venus reporter, other viral stage.
This is a side read-out of the assay, for part of the compounds, not drawn at random.

| # | SMILES | activity change (Venus) (%) |
|---|---|---|
| 1 | `CC(C)CC#Cc1ccc2c(c1)O[C@H](CN(C)C(=O)Nc1ccccc1F)[C@@H](C)CN([C@@H](C)CO)S2(=O)=O` | -66.34 |
| 2 | `C[C@@H]1CCCCO[C@@H](CN(C)Cc2ccncc2)[C@H](C)CN([C@H](C)CO)C(=O)c2cc(NC(=O)Nc3ccc(C(F)(F)F)cc3)ccc2O1` | -30.02 |
| 3 | `CN(C)C(=O)c1ccc(-c2ccc3c(c2)[C@@H]2[C@@H](CCN2C(=O)C2CCCC2)[C@H](CO)N3C)cc1` | -39.25 |
| 4 | `C[C@@H]1CN([C@H](C)CO)S(=O)(=O)c2ccc(C3=CCCCC3)cc2O[C@@H]1CN(C)C(=O)C1CCCCC1` | -30.98 |
| 5 | `CN(C)CC(=O)Nc1ccc2c(c1)[C@@H]1C[C@H](CC(=O)NCc3ccc(-c4ccccc4)cc3)O[C@@H](CO)[C@@H]1O2` | -46.74 |
| 6 | `C[C@@H]1CN([C@H](C)CO)C(=O)c2cc(NS(=O)(=O)c3ccc(F)cc3)ccc2O[C@@H](C)CCCCO[C@@H]1CN(C)S(=O)(=O)c1cccs1` | -23.22 |
| 7 | `Fc1cccc(-c2ccc([C@@H]3[C@@H]4CN(Cc5nccs5)C[C@H]3N4)cc2)c1` | -72.16 |
| 8 | `C[C@@H]1CN([C@@H](C)CO)C(=O)Cc2cc(NC(=O)CCC(F)(F)F)ccc2O[C@@H]1CN(C)Cc1ccc(Cl)c(Cl)c1` | -62.16 |
| 9 | `C[C@@H]1CN([C@H](C)CO)C(=O)c2cccc(NC(=O)Nc3ccc(F)cc3)c2O[C@@H]1CN(C)S(=O)(=O)c1ccc(Cl)cc1` | 60.11 |
| 10 | `C[C@@H]1CN([C@H](C)CO)S(=O)(=O)c2ccc(-c3ccccc3)cc2O[C@@H]1CN(C)C(=O)Cc1ccccc1` | -51.09 |
| 11 | `C[C@H](O)C#Cc1ccc2c(c1)O[C@@H](CN(C)Cc1ccc(-c3ccccc3)cc1)[C@H](C)CN([C@@H](C)CO)S2(=O)=O` | -69.29 |
| 12 | `Cc1ccc(-c2ccc3c(c2)O[C@H](CN(C)S(C)(=O)=O)[C@@H](C)CN([C@@H](C)CO)S3(=O)=O)cc1` | -33.54 |
| 13 | `O=C(Nc1cccc(F)c1)N1CC(=O)N2[C@H](CO)[C@@H](c3ccc(C#CCC4CCCC4)cc3)[C@H]2C1` | -49.45 |
| 14 | `C[C@@H]1CN([C@H](C)CO)C(=O)c2cccc(NC(=O)Nc3ccc(C(F)(F)F)cc3)c2O[C@@H]1CN(C)Cc1ccc(-c2ccccc2)cc1` | -37.81 |
| 15 | `C=CCNC(=O)[C@@H]1[C@H]2C(=O)O[C@H](c3ccccc3)[C@H](c3ccccc3)N2[C@H](c2ccccc2OCCO)[C@@]12C(=O)N(C(=O)OCCOC)c1ccccc12` | -32.06 |
| 16 | `C[C@@H]1CN([C@H](C)CO)S(=O)(=O)c2ccc(C3=CCCCC3)cc2O[C@H]1CN(C)C(=O)c1ccccc1` | -28.71 |
| 17 | `COc1ccc(NC(=O)N(C)C[C@@H]2OCc3ccccc3-c3c(n(C)c4ccccc34)C(=O)N([C@@H](C)CO)C[C@H]2C)cc1` | -59.14 |
| 18 | `O=C(Nc1cccc(F)c1)N1CCCCN2[C@H](C1)[C@@H](c1ccc(C#CC3CC3)cc1)[C@@H]2CO` | -74.51 |
| 19 | `COc1ccccc1NC(=O)N1CCCCN2[C@@H](CO)[C@@H](c3ccc(C#CC4CCCC4)cc3)[C@@H]2C1` | -77.44 |
| 20 | `N#C[C@@H]1[C@H](c2ccc(-c3cccc(F)c3)cc2)[C@H](CO)N1S(=O)(=O)c1cccc(F)c1` | -26.15 |
| 21 | `CO[C@@H]1CN(C)C(=O)c2cc(NC(=O)C3CCCC3)ccc2OC[C@@H](C)N(S(=O)(=O)c2ccc(Cl)cc2)C[C@H]1C` | -24.96 |
| 22 | `C[C@H](CO)N1C[C@H](C)[C@H](CN(C)Cc2ccc(C(F)(F)F)cc2)OCCCC[C@H](C)Oc2ccc(NS(=O)(=O)c3cccs3)cc2C1=O` | -42.85 |
| 23 | `Cc1ccc(S(=O)(=O)Nc2ccc3c(c2)C(=O)N([C@@H](C)CO)C[C@H](C)[C@@H](CN(C)S(=O)(=O)c2ccc(F)cc2)OCCCC[C@H](C)O3)cc1` | -35.12 |
| 24 | `C[C@@H]1CN([C@@H](C)CO)C(=O)c2cc(C#Cc3ccccc3)cnc2O[C@H]1CN(C)C(=O)c1ccccc1F` | -30.99 |
| 25 | `CO[C@H]1CN(C)C(=O)c2ccc(NC(=O)c3cccc(Oc4ccccc4)c3)cc2OC[C@H](C)NC[C@@H]1C` | -42.54 |
| 26 | `Cc1ccccc1-c1ccc([C@H]2[C@H](CO)N3C(=O)CN(C(=O)Nc4cccc(F)c4)C[C@@H]23)cc1` | -27.15 |
| 27 | `COC(=O)[C@@]1(CCS(=O)(=O)c2ccccc2)N=C(c2ccc(OCCCO)cc2)O[C@H]1c1ccccc1` | -30.02 |
| 28 | `COc1cccc(C#Cc2ccc3c(c2)O[C@H](CN(C)C)[C@@H](C)CN([C@@H](C)CO)S3(=O)=O)c1` | -40.35 |
| 29 | `C[C@@H]1CN([C@@H](C)CO)C(=O)Cc2cc(NC(=O)c3ccncc3)ccc2O[C@H]1CN(C)Cc1ccc(-c2ccccc2)cc1` | -54.57 |
| 30 | `COc1cccc(CN2C[C@@H]3N[C@H](C2)C3c2ccc(-c3ccc(C#N)cc3)cc2)c1` (some centres not stated) | -37.79 |
| 31 | `C[C@H]1CN([C@@H](C)CO)S(=O)(=O)c2ccc(-c3ccc(F)cc3)cc2O[C@H]1CN(C)C(=O)C1CCCCC1` | -55.93 |
| 32 | `COc1ccccc1-c1ccc([C@@H]2[C@H]3CN(C(=O)NC4CCCC4)CCCCN3[C@H]2CO)cc1` | -53.62 |
| 33 | `C[C@H]1CN([C@@H](C)CO)S(=O)(=O)c2ccc(-c3ccncc3)cc2O[C@H]1CN(C)Cc1ccc(Oc2ccccc2)cc1` | -36.45 |
| 34 | `C[C@H](CO)N1C[C@H](C)[C@H](CN(C)C(=O)Nc2ccc(F)cc2)Oc2ncc(-c3cc4ccccc4o3)cc2C1=O` | -49.14 |
| 35 | `O=C(C[C@H]1CC[C@@H]2[C@H](COC[C@H](O)CN2CCc2ccccc2)O1)N1CCC(Cc2ccccc2)CC1` | -42.83 |
| 36 | `C[C@@H]1CN([C@H](C)CO)S(=O)(=O)c2ccc(-c3cccc(C(=O)N(C)C)c3)cc2O[C@H]1CN(C)Cc1ccc2c(c1)OCO2` | -27.86 |
| 37 | `O=C(c1ccc(F)cc1)N1CCCCN2[C@H](CO)[C@@H](c3ccc(-c4ccc(F)cc4)cc3)[C@H]2C1` | -50.72 |
| 38 | `CCCNC(=O)N(C)C[C@@H]1Oc2cc(C#Cc3cccc(F)c3)ccc2S(=O)(=O)N([C@@H](C)CO)C[C@H]1C` | -33.18 |
| 39 | `OC[C@@H]1[C@H](c2ccc(/C=C/c3ccccc3)cc2)[C@H]2CN(Cc3cccnc3)CCCCN12` | -59.05 |
| 40 | `COc1ccc(-c2ccc3c(c2)O[C@@H](CN(C)C(=O)c2ccccc2F)[C@@H](C)CN([C@@H](C)CO)S3(=O)=O)cc1` | -38.04 |
| 41 | `C[C@@H]1CCCCO[C@H](CN(C)Cc2ccc(Cl)c(Cl)c2)[C@@H](C)CN([C@@H](C)CO)C(=O)c2cc(NS(C)(=O)=O)ccc2O1` | -75.45 |
| 42 | `COc1ccccc1C#Cc1ccc([C@H]2[C@@H](C#N)N(C(=O)C3CCCCC3)[C@H]2CO)cc1` | -32.82 |
| 43 | `C[C@H](CO)N1C[C@H](C)[C@H](CN(C)S(=O)(=O)c2ccc(F)cc2)OCCCC[C@H](C)Oc2ccc(NS(=O)(=O)c3ccc(Cl)cc3)cc2C1=O` | -33.51 |
| 44 | `C[C@@H]1CCCCO[C@@H](CN(C)Cc2ccc(C(F)(F)F)cc2)[C@@H](C)CN([C@@H](C)CO)C(=O)c2cc(NC(=O)c3ccncc3)ccc2O1` | -58.47 |
| 45 | `C[C@H]1CN([C@@H](C)CO)S(=O)(=O)c2ccc(C#Cc3ccncc3)cc2O[C@@H]1CN(C)C(=O)C1CCC1` | -58.1 |
| 46 | `Cc1ccccc1-c1ccc(C2[C@@H]3CN(C(=O)C4CCCCC4)C[C@H]2N3)cc1` (some centres not stated) | -82.37 |
| 47 | `COc1cccc(NC(=O)N(C)C[C@@H]2OCc3ccccc3-c3c(n(C)c4ccccc34)C(=O)N([C@H](C)CO)C[C@@H]2C)c1` | -56.35 |

3 of the entries, repeated:

* CC(C)CC#Cc1ccc2c(c1)O[C@H](CN(C)C(=O)Nc1ccccc1F)[C@@H](C)CN([C@@H](C)CO)S2(=O)=O | activity change (Venus) -66.34%
* COc1cccc(NC(=O)N(C)C[C@@H]2OCc3ccccc3-c3c(n(C)c4ccccc34)C(=O)N([C@H](C)CO)C[C@@H]2C)c1 | activity change (Venus) -56.35%
* CCCNC(=O)N(C)C[C@@H]1Oc2cc(C#Cc3cccc(F)c3)ccc2S(=O)(=O)N([C@@H](C)CO)C[C@H]1C | activity change (Venus) -33.18%